Several values for one entry are separate records, joined by “and”; a condition that tells them apart may be missing. Equal entries are not always repeated. This list was built around the results that the source calls inconclusive (neither active nor inactive); the mix of calls is not that of the screen. Where the call is inconclusive, the potency comes from a doubtful curve fit. Activity calls are given as the source filed them. Rule for the calls: active = hit-call score of the fitted dose curve at least 0.9, where 1 is the maximum; inconclusive = response in the unintended direction; inactive = score below 0.9.
Experiments:
[1] = ATG_M_19_TRANS: Attagene TRANS-FACTORIAL HepG2 Assay for M19 Transcription Factor (Internal Marker) (AID 2282974); conditions: HepG2 Attagene TRANS-FACTORIAL M19 internal marker reporter
Method in brief: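 Gain-of-signal in reporter mRNA, relative to DMSO, was scored from capillary electrophoresis fluorescence. HepG2 cells carried transiently transfected multiple reporter transcription units and were incubated with test chemicals for 24 h.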

By UniProt entry, the sequences of proteins in these tests, tags left out. Where a name states a change or a piece, a line headed by the entry shows the natural chain unless it says otherwise.
UniProt Q13133, whole entry, looked up: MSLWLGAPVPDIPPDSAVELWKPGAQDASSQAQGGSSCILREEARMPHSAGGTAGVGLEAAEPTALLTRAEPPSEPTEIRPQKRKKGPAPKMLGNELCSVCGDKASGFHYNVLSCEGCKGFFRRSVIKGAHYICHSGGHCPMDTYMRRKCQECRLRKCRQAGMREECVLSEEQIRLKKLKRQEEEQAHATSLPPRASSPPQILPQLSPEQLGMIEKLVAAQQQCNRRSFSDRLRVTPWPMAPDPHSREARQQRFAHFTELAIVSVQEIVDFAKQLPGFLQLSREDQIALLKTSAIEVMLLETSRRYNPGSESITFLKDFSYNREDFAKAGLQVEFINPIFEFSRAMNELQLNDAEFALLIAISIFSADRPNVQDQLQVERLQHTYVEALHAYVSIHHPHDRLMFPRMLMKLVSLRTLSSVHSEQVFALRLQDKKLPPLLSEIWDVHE
UniProt P41235: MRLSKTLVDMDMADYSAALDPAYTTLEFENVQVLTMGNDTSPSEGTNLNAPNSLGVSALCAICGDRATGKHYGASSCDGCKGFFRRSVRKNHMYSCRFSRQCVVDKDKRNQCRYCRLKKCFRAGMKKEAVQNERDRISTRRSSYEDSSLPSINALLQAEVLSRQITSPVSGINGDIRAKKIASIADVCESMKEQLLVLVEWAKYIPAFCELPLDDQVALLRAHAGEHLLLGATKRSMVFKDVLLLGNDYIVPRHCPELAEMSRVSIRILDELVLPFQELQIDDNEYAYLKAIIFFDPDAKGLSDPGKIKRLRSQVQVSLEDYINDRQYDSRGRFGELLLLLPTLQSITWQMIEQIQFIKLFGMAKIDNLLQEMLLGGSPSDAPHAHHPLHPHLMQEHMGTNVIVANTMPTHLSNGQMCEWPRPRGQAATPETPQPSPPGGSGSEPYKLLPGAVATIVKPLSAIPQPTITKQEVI
UniProt P43354, whole entry, looked up: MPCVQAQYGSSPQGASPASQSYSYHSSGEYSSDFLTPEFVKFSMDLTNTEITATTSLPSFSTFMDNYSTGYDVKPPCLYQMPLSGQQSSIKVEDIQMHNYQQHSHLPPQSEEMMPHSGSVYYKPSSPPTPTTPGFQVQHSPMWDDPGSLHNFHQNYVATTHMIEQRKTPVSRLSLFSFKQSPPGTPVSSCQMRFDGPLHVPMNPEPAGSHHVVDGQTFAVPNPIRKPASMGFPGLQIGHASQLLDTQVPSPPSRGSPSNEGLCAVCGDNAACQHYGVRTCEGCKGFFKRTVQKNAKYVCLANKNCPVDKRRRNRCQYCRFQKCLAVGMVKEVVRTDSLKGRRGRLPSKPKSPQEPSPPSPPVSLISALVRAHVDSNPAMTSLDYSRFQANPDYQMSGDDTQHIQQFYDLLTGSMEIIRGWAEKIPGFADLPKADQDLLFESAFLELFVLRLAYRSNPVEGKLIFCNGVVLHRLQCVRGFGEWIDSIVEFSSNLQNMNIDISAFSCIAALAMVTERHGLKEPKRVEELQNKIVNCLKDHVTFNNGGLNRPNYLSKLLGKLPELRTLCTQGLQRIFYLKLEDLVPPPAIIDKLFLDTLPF
UniProt Q07869: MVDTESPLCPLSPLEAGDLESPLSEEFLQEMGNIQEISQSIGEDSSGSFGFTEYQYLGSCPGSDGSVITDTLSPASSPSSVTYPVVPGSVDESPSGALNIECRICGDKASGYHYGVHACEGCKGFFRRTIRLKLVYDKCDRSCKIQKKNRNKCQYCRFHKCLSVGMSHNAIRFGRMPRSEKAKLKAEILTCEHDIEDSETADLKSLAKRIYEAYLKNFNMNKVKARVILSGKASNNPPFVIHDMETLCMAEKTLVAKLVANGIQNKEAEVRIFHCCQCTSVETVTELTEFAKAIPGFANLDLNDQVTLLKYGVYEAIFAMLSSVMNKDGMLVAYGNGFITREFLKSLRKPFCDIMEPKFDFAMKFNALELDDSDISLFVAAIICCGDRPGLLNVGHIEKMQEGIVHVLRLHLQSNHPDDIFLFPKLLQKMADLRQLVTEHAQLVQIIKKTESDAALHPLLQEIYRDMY
UniProt P10276, whole entry, looked up: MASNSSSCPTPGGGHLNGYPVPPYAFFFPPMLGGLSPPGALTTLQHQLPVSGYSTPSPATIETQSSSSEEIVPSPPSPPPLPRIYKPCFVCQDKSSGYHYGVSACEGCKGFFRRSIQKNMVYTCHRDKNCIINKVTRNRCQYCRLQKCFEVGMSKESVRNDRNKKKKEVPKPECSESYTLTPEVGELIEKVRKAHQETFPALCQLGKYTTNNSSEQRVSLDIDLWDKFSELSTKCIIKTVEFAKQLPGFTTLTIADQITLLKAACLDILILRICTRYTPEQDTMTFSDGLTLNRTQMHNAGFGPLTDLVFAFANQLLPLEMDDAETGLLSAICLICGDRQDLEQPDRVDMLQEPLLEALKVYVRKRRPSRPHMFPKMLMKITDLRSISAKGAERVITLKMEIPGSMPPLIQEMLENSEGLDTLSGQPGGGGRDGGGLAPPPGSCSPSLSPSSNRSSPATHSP
UniProt P37231: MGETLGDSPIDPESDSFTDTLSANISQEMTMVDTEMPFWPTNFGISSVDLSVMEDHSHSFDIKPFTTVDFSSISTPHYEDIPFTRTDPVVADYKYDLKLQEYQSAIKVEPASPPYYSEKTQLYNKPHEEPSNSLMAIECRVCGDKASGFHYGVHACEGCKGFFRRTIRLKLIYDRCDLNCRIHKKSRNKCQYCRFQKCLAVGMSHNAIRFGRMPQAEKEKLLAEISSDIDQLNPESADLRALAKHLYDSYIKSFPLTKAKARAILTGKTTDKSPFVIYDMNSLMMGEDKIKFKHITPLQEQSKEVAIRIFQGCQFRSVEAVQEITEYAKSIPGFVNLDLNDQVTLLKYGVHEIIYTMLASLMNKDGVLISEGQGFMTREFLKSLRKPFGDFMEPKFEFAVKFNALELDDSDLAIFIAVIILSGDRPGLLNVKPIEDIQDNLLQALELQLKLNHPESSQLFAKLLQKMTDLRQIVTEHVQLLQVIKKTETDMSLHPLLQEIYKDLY
UniProt P13631, whole entry, looked up: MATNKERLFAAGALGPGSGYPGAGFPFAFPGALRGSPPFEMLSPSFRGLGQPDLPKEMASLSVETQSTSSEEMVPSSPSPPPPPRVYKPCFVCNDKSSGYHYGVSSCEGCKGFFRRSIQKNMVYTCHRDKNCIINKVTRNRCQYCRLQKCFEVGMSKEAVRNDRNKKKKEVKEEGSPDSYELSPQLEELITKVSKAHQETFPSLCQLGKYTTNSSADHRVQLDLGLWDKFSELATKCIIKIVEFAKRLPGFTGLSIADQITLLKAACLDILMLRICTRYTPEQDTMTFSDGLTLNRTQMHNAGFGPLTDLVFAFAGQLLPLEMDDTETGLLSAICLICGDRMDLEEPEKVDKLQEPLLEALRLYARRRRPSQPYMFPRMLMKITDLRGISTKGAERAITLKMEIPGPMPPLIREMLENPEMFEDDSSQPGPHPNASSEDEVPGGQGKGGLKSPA
UniProt Q92753: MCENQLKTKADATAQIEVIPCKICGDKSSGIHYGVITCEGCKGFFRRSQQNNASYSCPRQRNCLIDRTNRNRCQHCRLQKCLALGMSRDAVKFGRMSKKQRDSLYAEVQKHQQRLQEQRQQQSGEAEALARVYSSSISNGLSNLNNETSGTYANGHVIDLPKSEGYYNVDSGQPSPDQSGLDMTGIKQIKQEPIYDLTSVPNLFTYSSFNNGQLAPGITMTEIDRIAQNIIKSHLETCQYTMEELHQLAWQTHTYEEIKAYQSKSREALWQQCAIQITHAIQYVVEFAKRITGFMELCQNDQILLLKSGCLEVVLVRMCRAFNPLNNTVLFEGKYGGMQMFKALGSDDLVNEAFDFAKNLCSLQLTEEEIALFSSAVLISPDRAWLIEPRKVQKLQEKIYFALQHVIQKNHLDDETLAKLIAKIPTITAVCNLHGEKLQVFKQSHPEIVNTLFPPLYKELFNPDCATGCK
UniProt P51449: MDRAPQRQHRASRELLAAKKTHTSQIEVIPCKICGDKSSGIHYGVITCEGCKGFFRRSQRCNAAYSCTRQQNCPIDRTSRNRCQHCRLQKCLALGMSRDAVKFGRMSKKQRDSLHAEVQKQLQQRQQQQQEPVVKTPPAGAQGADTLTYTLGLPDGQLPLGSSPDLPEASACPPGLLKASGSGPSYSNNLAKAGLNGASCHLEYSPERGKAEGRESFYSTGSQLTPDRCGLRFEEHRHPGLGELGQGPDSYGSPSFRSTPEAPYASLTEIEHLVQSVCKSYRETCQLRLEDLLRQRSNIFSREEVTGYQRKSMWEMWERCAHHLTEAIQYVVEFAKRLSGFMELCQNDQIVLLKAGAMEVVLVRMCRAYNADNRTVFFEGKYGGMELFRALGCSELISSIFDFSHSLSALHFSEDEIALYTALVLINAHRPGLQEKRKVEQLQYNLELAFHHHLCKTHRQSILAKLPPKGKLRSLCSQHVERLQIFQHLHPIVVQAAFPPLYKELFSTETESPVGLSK
UniProt P28702: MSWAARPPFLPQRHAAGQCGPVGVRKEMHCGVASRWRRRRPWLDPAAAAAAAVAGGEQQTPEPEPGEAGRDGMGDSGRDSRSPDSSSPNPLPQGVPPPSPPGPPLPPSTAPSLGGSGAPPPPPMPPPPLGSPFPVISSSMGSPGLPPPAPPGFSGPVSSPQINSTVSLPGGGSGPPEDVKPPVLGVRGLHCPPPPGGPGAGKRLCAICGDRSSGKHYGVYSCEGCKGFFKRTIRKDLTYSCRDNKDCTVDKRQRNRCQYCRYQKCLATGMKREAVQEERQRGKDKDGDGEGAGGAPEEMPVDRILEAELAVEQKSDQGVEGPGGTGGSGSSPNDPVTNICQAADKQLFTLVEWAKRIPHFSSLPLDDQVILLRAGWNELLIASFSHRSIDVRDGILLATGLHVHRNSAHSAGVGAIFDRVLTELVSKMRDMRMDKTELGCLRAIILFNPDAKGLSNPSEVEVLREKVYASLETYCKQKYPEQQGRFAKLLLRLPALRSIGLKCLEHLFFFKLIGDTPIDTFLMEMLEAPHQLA
UniProt P55055, whole entry, looked up: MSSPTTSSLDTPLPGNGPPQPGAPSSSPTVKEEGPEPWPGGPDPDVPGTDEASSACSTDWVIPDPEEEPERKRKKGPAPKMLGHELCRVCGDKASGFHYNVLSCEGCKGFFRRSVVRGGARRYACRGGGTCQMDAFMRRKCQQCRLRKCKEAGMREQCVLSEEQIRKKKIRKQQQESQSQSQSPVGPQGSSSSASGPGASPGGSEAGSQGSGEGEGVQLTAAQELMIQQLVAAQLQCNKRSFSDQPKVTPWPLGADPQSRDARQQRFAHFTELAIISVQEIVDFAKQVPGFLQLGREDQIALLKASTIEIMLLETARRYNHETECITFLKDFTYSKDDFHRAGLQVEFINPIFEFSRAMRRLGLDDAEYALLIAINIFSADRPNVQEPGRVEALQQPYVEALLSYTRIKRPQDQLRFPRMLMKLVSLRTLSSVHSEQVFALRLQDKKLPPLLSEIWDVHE
UniProt P10827: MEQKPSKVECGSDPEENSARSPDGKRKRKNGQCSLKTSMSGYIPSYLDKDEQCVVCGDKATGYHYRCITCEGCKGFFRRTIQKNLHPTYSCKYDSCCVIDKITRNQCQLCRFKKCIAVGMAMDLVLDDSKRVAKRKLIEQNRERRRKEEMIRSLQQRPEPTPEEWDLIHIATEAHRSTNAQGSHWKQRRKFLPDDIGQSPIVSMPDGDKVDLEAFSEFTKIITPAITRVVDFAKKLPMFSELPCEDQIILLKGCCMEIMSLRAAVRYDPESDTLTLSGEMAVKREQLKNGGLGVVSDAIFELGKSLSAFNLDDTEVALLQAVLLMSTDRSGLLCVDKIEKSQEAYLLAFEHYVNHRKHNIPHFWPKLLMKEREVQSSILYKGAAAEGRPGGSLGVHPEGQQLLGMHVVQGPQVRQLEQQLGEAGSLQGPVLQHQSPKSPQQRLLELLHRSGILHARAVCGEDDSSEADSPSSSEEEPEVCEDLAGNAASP
UniProt P10826, whole entry, looked up: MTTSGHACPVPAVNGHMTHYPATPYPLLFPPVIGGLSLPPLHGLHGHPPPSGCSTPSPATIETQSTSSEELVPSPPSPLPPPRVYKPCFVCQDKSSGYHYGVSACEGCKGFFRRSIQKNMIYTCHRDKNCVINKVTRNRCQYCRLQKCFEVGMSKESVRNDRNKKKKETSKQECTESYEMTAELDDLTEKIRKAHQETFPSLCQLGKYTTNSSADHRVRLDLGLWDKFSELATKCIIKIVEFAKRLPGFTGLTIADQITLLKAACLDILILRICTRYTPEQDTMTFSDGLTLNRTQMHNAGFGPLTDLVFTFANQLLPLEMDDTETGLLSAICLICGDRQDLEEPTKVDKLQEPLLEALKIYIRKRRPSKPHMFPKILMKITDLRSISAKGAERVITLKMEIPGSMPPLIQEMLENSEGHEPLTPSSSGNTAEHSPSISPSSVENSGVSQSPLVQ

[2] = ATG_GAL4_TRANS: Attagene TRANS-FACTORIAL HepG2 Assay for GAL4 (Internal Marker) (AID 2282976); conditions: HepG2 Attagene TRANS GAL4 internal marker reporter
Method in brief: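 HepG2 cells transiently transfected with multiplexed GAL4-UAS reporter constructs were dosed for 24 h. Reporter mRNA was measured by RT-PCR, 6-FAM primer extension, HpaI digestion and capillary electrophoresis, and gain of signal was fitted relative to DMSO.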

[3] = target: Oxysterols receptor LXR-alpha (Homo sapiens) (UniProt Q13133); assay: ATG_LXRa_TRANS: Attagene TRANS-FACTORIAL HepG2 Assay for human Liver X Receptor alpha (LXRa) (AID 2282980); conditions: HepG2 Attagene TRANS reporter, LXRa transactivation
Method in brief: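 HepG2 cells were transiently transfected with multiplexed reporter units driven by chimeric LXRa–GAL4 fusion proteins, then dosed for 24 h. Reporter mRNA was quantified by RT-PCR, fluorescent labelling and capillary electrophoresis; gain of signal fitted against DMSO baseline.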

[4] = target: Hepatocyte nuclear factor 4-alpha (Homo sapiens) (UniProt P41235); assay: ATG_HNF4a_TRANS: Attagene TRANS-FACTORIAL HepG2 Assay for human Hepatocyte Nuclear Factor 4 alpha (HNF4a) (AID 2282982); conditions: HepG2 HNF4a transactivation reporter, mRNA readout
Method in brief: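 Readout is fluorescent reporter-transcript fragments resolved by capillary electrophoresis after RT-PCR from HepG2 cells dosed for 24 h. Cells carried transfected GAL4-UAS reporter constructs measuring exogenous NR-GAL4 chimera activity; DMSO served as baseline.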

[5] = target: Nuclear receptor subfamily 4 group A member 2 (Homo sapiens) (UniProt P43354); assay: ATG_NURR1_TRANS: Attagene TRANS-FACTORIAL HepG2 Assay for human Nuclear Receptor Related Protein 1 (NURR1) (AID 2282985); conditions: HepG2 Attagene TRANS reporter, mRNA readout
Method in brief: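 Transient transfection of HepG2, human liver cells, with multiple GAL4-UAS reporter transcription units. Cells dosed 24 h, RNA isolated, reverse-transcribed, PCR-amplified, FAM-labelled, HpaI-digested, sized by capillary electrophoresis. DMSO served as negative control.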

[6] = target: human Peroxisome Proliferator-activated Receptor alpha (PPARa), PPARA (gene 5465) (UniProt Q07869); assay: ATG_PPARa_TRANS: Attagene TRANS-FACTORIAL HepG2 Assay for human Peroxisome Proliferator-activated Receptor alpha (PPARa) (AID 2283001);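 for AC50: potency for gain of reporter signal over DMSO so agonist or activator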
Method in brief: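 Read-out is fluorescence of reporter cDNA fragments resolved by capillary electrophoresis after RT-PCR. Human HepG2 liver cells carried transfected PPARa-Gal4 chimera and GAL4-UAS reporter units, treated 24 h; activity scored as increase over DMSO.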

[7] = target: Retinoic acid receptor alpha (Homo sapiens) (UniProt P10276); assay: ATG_RARa_TRANS: Attagene TRANS-FACTORIAL HepG2 Assay for human Retinoic Acid Receptor alpha (RARa) (AID 2283005);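 for AC50: potency for increased reporter signal meaning RARa activation over DMSO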
Method in brief: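 Reporter transcripts, measured by RT-PCR with fluorescent labeling and capillary electrophoresis after 24 h dosing, reflect activity of an exogenous human RARa–GAL4 fusion in transiently transfected HepG2. Fitted for increase relative to DMSO.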

[8] = target: Peroxisome proliferator-activated receptor gamma (Homo sapiens) (UniProt P37231); assay: ATG_PPARg_TRANS: Attagene TRANS-FACTORIAL HepG2 Assay for human Peroxisome Proliferator-activated Receptor-gamma (PPARg) (AID 2283007)
Method in brief: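 Liver-derived HepG2 cells expressing an exogenous NR-Gal4 chimera alongside GAL4-UAS reporter genes; 24 h exposure. Fluorescence of reporter RT-PCR products, separated by capillary electrophoresis, gives mRNA induction relative to DMSO.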

[9] = target: human Retinoic Acid Receptor gamma (RARg), RARG (gene 5916) (UniProt P13631); assay: ATG_RARg_TRANS: Attagene TRANS-FACTORIAL HepG2 Assay for human Retinoic Acid Receptor gamma (RARg) (AID 2283009);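 for AC50: AC50 is for reporter induction above DMSO meaning RARg activation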
Method in brief: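 HepG2 transiently transfected with GAL4-UAS reporter units and chimeric NR-Gal4 constructs; 24 h compound exposure. Reporter mRNA quantified by RT-PCR, FAM labeling, HpaI digestion and capillary electrophoresis; gain-of-signal versus DMSO.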

[10] = target: human RAR-related Orphan Receptor beta (RORb), RORB (gene 6096) (UniProt Q92753); assay: ATG_RORb_TRANS: Attagene TRANS-FACTORIAL HepG2 Assay for human RAR-related Orphan Receptor beta (RORb) (AID 2283010);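 for AC50: potency for increased reporter mRNA meaning activation of RORb-Gal4 chimera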
Method in brief: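 HepG2 cells transiently transfected with GAL4-UAS reporter units expressing chimeric NR-Gal4 protein; reporter mRNA measured 24 h after dosing by RT-PCR, 6-FAM labelling and capillary electrophoresis. Gain-of-signal fitted relative to DMSO baseline.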

[11] = target: human RAR-related Orphan Receptor gamma (RORg), RORC (gene 6097) (UniProt P51449); assay: ATG_RORg_TRANS: Attagene TRANS-FACTORIAL HepG2 Assay for human RAR-related Orphan Receptor gamma (RORg) (AID 2283011);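 for AC50: potency for induction of reporter transcripts above DMSO so activators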
Method in brief: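 Readout: reporter transcript induction (RT-PCR, fluorescent primer extension, capillary electrophoresis) after 24 h compound exposure of transiently transfected HepG2 cells carrying a RORg-Gal4 chimera and GAL4-UAS reporters; DMSO served as baseline, with increasing signal fitted.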

[12] = target: human Retinoid X Receptor beta (RXRb), RXRB (gene 6257) (UniProt P28702); assay: ATG_RXRb_TRANS: Attagene TRANS-FACTORIAL HepG2 Assay for human Retinoid X Receptor beta (RXRb) (AID 2283013)
Method in brief: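 HepG2 cells were transiently transfected with multiplexed GAL4-UAS reporters and a chimeric RXRb-Gal4 construct, then exposed for 24 h. Reporter mRNA was quantified by RT-PCR, FAM labeling, HpaI digestion and capillary electrophoresis; gain of signal was scored against DMSO.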

[13] = TOX21_p53_BLA_p2_viability: Viability Assessment in the Tox21 HCT-116 p53 Agonism Beta-lactamase Assay, Phase 2 (AID 2283591);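 note: compound exposure lasted 16 h at 37 °C; actives lower the ATP signal meaning cytotoxicity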
Method in brief: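 Cytotoxicity readout: CellTiter-Glo ATP luminescence, 30 min at room temperature, after the beta-lactamase read. Cells were HCT116 exposed 16 h at 37C to compounds pin-transferred at 217-fold dilution from DMSO stocks.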

[14] = TOX21_p53_BLA_p3_viability: Viability Assessment in the Tox21 HCT-116 p53 Agonism Beta-lactamase Assay, Phase 3 (AID 2283593);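 note: cells exposed to compound for 16 h before reading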
Method in brief: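 Cellular ATP was quantified by CellTiter-Glo luminescence, read after 30 min at room temperature. Beforehand, HCT116 cells (4000/well) received compound 5 h post-seeding, 217-fold diluted from DMSO, then incubated 16 h at 37C.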

[15] = TOX21_p53_BLA_p5_viability: Viability Assessment in the Tox21 HCT-116 p53 Agonism Beta-lactamase Assay, Phase 5 (AID 2283600)
Method in brief: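 Cells were plated at 4000/well, rested 5 h at 37C, then given compounds in DMSO (217-fold dilution) for 16 h at 37C, 5% CO2. Following the CCF4-AM beta-lactamase read, CellTiter-Glo was added and luminescence was read after 30 min at room temperature.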

[16] = target: Oxysterols receptor LXR-beta (Homo sapiens) (UniProt P55055); assay: ATG_LXRb_TRANS: Attagene TRANS-FACTORIAL HepG2 Assay for human Liver X Receptor beta (LXRb) (AID 2282981); conditions: HepG2 Attagene TRANS GAL4-LXRb reporter, mRNA
Method in brief: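 Transient transfection HepG2 (multiplexed RTUs, GAL4-UAS); NR-Gal4 chimera; 24 h exposure; RNA → RT-PCR → 6-FAM primer extension → HpaI → CE; increase vs DMSO.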

[17] = TOX21_p53_BLA_p4_viability: Viability Assessment in the Tox21 HCT-116 p53 Agonism Beta-lactamase Assay, Phase 4 (AID 2283597);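 note: hits lower the luminescence signal meaning cytotoxicity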
Method in brief: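 HCT116 p53-bla cells (4000/well) rested 5 h at 37C, then received compounds in DMSO (217-fold dilution) for 16 h at 37C, 5% CO2. CellTiter-Glo was added after the CCF4-AM read, and luminescence was read after 30 min at room temperature.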

[18] = target: human Thyroid Receptor alpha (THRa1), THRA (gene 7067) (UniProt P10827); assay: ATG_THRa1_TRANS: Attagene TRANS-FACTORIAL HepG2 Assay for human Thyroid Receptor alpha (THRa1) (AID 2283014)
Method in brief: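 HepG2 cells transiently transfected with multiplexed GAL4-UAS reporter units for exogenous chimeric THRa1-Gal4; reporter mRNA measured 24 h after dosing by RT-PCR, 6-FAM labelling, HpaI digestion and capillary electrophoresis. Gain-of-signal fitted versus DMSO baseline.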

[19] = ACEA_ER_AUC_viability: ACEA Biosciences xCELLigence Real-Time Cell Analysis on Estrogen Receptor Agonism for Viability (AID 2283782);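 note: continuous compound exposure with impedance area under curve over 80 h; hit means loss of impedance signal meaning reduced cell growth or viability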
Method in brief: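 T-47D; phenol red-free RPMI1640 + 10% CS-FBS; 8 conc., 1:4 serial, max 100 uM final, ≤0.5% DMSO; n = 2; continuous exposure; impedance monitored to 80 h post-dose; AUC vs DMSO.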

[20] = target: human Retinoic Acid Receptor beta (RARb), RARB (gene 5915) (UniProt P10826); assay: ATG_RARb_TRANS: Attagene TRANS-FACTORIAL HepG2 Assay for human Retinoic Acid Receptor beta (AID 2283004)
Method in brief: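 HepG2 cells transiently transfected with multiplexed GAL4-UAS reporter units expressing chimeric NR–Gal4 fusions; 24 h compound exposure. Reporter mRNA quantified by RT-PCR, 6-FAM labelling, HpaI digestion and capillary electrophoresis; gain-of-signal fitted against DMSO baseline.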

Measured: AC50

C=C(C)C(=O)OCCC[Si](OC)(OC)OC
inactive: [1] | [3] | [4] | [6] | [10] | [11] | [13] | [15]
inconclusive: [2] 100 µM | [5] 100 µM | [7] 100 µM | [8] 100 µM | [9] 100 µM | [12] 100 µM | [13] 77.1 µM | [14] 46.1 µM

N#Cc1ccc(CC(=O)c2cccc(C(F)(F)F)c2)cc1
inactive: [4]
inconclusive: [1] 0.132 µM | [2] 100 µM | [3] 16.1 µM | [16] 100 µM | [20] 100 µM | [10] 100 µM | [11] 52.3 µM | [13] 0.104 µM | [14] 46.1 µM | [17] 0.192 µM
active: [5] 100 µM | [12] 5.99 µM | [18] 42 µM

CCCCSCCCC
inactive: [2] | [3] | [13]
inconclusive: [1] 100 µM | [16] 100 µM | [4] 100 µM | [5] 100 µM | [6] 100 µM | [20] 100 µM | [7] 100 µM | [9] 100 µM | [10] 100 µM | [11] 0.0823 µM | [12] 100 µM | [14] 2.61 µM | [17] 46.1 µM | [19] 50 µM

O=P(O)(O)O
inconclusive: [3] 100 µM | [16] 172 µM | [6] 100 µM | [20] 100 µM | [7] 100 µM | [8] 100 µM | [9] 100 µM | [18] 100 µM
inactive: [1] | [2] | [10] | [19]

CCNCCO
inactive: [5]
inconclusive: [1] 0.0631 µM | [2] 100 µM | [3] 100 µM | [16] 100 µM | [6] 0.016 µM | [7] 100 µM | [9] 100 µM | [10] 100 µM | [11] 100 µM | [12] 100 µM | [19] 50 µM

CC1=C(O)C(=O)C(C)O1 (centres undefined)
inactive: [2] | [16] | [7] | [9] | [10] | [15]
inconclusive: [1] 102 µM | [3] 23.1 µM | [4] 102 µM | [6] 0.246 µM | [18] 102 µM | [14] 47 µM
active: [19] 66.8 µM
